How the values were obtained:
[1] = test system: Gaucher patient fibroblasts (Coreill Institute, GM08760); assay: GPN induced calcium release phenotypic assay on Gaucher patient fibroblasts; assay type: cell-based; conditions: Homo sapiens, Fibroblast; Gaucher patient cells, 72 hours compound treatment, 50 μM GPN
[2] = test system: Wild-type patient fibroblasts (Coriell Institute, GM 005659); assay: cells; conditions: Homo sapiens, Fibroblast, 72 h, read-out: EC50, GPN-induced response on wild type cells
Description: Gaucher patient fibroblasts (Coreill Institute, GM08760) were cultured in EMEM with 15% FBS, 1% Pen/Strep at 37° C./5% CO2. Wild-type patient fibroblasts (Coriell Institute, GM 005659) were used as a control cell line. Cells are plated with a MultiFlo dispenser (800 cells/well in 30 μL of complete growth media) in black/clear bottom 384-well plates and cultured for 24 hours at 37° C., 5% CO2. Compounds of the disclosure are then added to the cells (12 point dose response curve, 150 nM to 30 uM final compound concentration using a 5.0 μL of a 7× stock solution (1.05 μM to 210 μM)) under sterile conditions and continued in culture for 72 hours at 37° C., 5% CO2. […] The data from each well were normalized with basal fluorescence by dividing the maximum fluorescence over the entire real time reading by the initial basal fluorescence.
Cells (800 cells/well) were plated with a MultiFlo dispenser (BioTek) and cultured for 24 h at 37° C., 5% CO2. […] Cells were loaded with Screen Quest™ Fluo-8 No Wash Calcium mix (ATT Bio) and analyzed for changes in response to GPN. The data from each well were normalized with basal fluorescence by dividing the maximum fluorescence over the entire real time reading by the initial basal fluorescence. […] EC50 and Hill slope values are determined using a four-parameter dose-response (variable slope) equation in GraphPad Prism.

[3] = test system: β-Glucocerebrosidase (GCase); assay: β-Glucocerebrosidase (GCase) activity in lysates of compound-treated Gaucher patient fibroblasts (4-MUG substrate); assay type: cell-based, human; conditions: 10 μM, 3 days, Gaucher patient fibroblast lysates, no change = 1
Description: β-Glucocerebrosidase Activity Enhanced in Gaucher Patient Cells after Tamoxifen and synthesized analog treatment: Gaucher patient fibroblasts were cultured for 3 days in 10 μM final concentration tamoxifen, MC210155 or MC150235. Cellular lysates were prepared from compound treated cells and non-treated cells were included as a control. β-Glucocerebrosidase (GCase) activity was directly measured from lysates prepared from treated cells using a fluorescent substrate 4-methylumbelliferyl-β-D-glucopyranoside (MUG). Cells were washed 3× with phosphate-buffered saline (PBS) and detached by scraping. After centrifugation, The pellets were frozen on dry ice, thawed and lysed in McIlvaine (MI) buffer (100 mM sodium citrate, 200 mM sodium phosphate dibasic, 0.25% sodium taurocholate, and 0.1% Triton X-100, pH 5.2 containing protease inhibitors). […] Fluorescence was measured on a Clariostar plate reader (BMG Labtech) for one second per well using 355 nm excitation and 460 nm emission. Total protein was determined with the Bradford protein assay kit (BioRad) according to the manufacturer's instructions. The GCase activity measured after compound treatment is normalized to non-treated cells and expressed as relative activity where no change in GCAse activity is equal 1 (FIG. 3).

Structure (SMILES): CC/C(=C(\c1ccccc1)c1ccc(OCCN(C)C)cc1)c1ccccc1 [Tamoxifen, reference compound]
- EC50 [1]: 8.8 ± 0.18 µM
- EC50 [2]: 4 ± 0.38 µM
- GCase activity relative to non-treated cells [3]: increase in GCase activity

Source: US11873267B2, “Functionalized N,N-dialkylamino phenyl ethers and their method of use” (Temple University-Of The Commonwealth System of Higher …, priority 2016, dated 2024)
